# From the supplement of paper PMC3334620
# In all, about 33,000 sequences were measured (“E-score (-0.5 to 0.5)”: median about -8e-05, highest 2% from about 0.23 on). This is one part of the list.
# Target: T1, Nrg2 (UniProt P38082)
# T1 sequence: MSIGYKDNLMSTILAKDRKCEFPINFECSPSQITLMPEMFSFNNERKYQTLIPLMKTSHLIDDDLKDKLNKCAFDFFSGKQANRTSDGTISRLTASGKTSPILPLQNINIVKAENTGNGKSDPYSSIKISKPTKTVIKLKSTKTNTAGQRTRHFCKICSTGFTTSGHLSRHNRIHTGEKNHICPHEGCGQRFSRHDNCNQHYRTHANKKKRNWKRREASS
# Experiment: PBM E-score (8-mer binding enrichment) (E-score (-0.5 to 0.5)); higher = stronger / more preferred TF binding
# Conditions: protein concentration: 100 nM; construct: GST-full length
# Procedure: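 Universal 'all 10-mer' protein binding microarrays (Agilent AMADID 015681) probed with GST-tagged S. cerevisiae TFs (full-length or DBD) made by in vitro transcription/translation (PURExpress), about 100-200 nM. Bound TF was detected with fluorescent anti-GST. Each ungapped 8-mer (which stands for itself and its reverse complement) is scored by the PBM enrichment score (E-score), a modified Wilcoxon-Mann-Whitney statistic from -0.5 to +0.5, computed with the Universal PBM Analysis Suite. Scale: above 0.35 generally sequence-specific binding.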
row,Sequence,PBM E-score
1,CTGCTTTA,0.23
2,CACCTGAA,0.0424
3,GGACAGTA,0.129
4,CTACCGGA,0.00436
5,CACCTATC,0.0791
6,TCGGTTCA,-0.286
7,GCTCGACC,-0.0125
8,CGGACTTC,-0.133
9,TAAAATAA,0.00492
10,ACAGTAAT,0.113
11,CTGGTGCC,-0.212
12,TGGACGAA,0.0736
13,ACGCCCGT,0.00139
14,CGTTGAGC,-0.0124
15,ATACCATA,0.128
16,CGACACCG,-0.23
17,AGCTATGG,-0.0356
18,CATTAAGG,0.154
19,AAATAACT,0.0562
20,TACGTCCA,-0.0712
21,CATGAAAC,0.0945
22,ATCTGTAC,0.215
23,ACGGCGAA,0.148
24,GTCGACGA,0.129
25,CCCTGGTA,0.0895

row,Sequence,PBM E-score
1,CAACCTAA,0.059
2,GAAAGGCA,-0.0231
3,GGAGTGGA,-0.105
4,ACGCGATC,0.146
5,ATGCCCAA,0.0341
6,GCCGATGA,-0.0746
7,GGCTTCAC,-0.169
8,GAGACACC,-0.0529
9,AGTCTGAT,0.0567
10,CGAGGACA,0.108
11,ATCTGGTG,-0.0125
12,CATATAGA,0.0434
13,CTAAACGA,0.0423
14,CTTCTCGA,0.0205
15,GACCTAAC,0.15
16,AAGTGTGT,-0.0253
17,GGAAAGGA,-0.147
18,AACGCCGG,-0.0471
19,ACAGTAGT,0.0965
20,CGTCTATA,-0.00075
21,CACGACCC,-0.00935
22,GCGTAGAA,-0.0145
23,ACTGTGTG,0.0512
24,ATTTTTAC,-0.0741
25,AACCTAGT,-0.0561

# Quoted at random: 4 records from the list.
row,Sequence,PBM E-score
18,AACGCCGG,-0.0471
5,ATGCCCAA,0.0341
24,ATTTTTAC,-0.0741
21,CACGACCC,-0.00935

# Looked up above.
# Under PBM E-score, CTACCGGA is entered as 0.00436
# Under PBM E-score, ATTTTTAC is entered as -0.0741
# Under PBM E-score, AACGCCGG is entered as -0.0471
# Under PBM E-score, AACCTAGT is entered as -0.0561

# Later entries:

row,Sequence,PBM E-score
1,AGCTGCTG,0.0508
2,ATGTTGTA,0.128
3,CCGCCGGC,-0.0351
4,CCGTCAGA,-0.142
5,ACACAAAA,0.0735
6,ACTGAAAC,0.198
7,CTTTCCCC,-0.163
8,ATCTGCTA,-0.022
9,ACACGCCT,-0.0556
10,CTCGCGCA,-0.141
11,GTGGTAGA,-0.137
12,AATGCGCG,0.177
13,AGAAGCTA,-0.154
14,CAAGGCGG,-0.133
15,ACGTTGAC,-0.00444
16,GCAGGTAA,-0.0383
17,GTCCCCAA,0.14
18,AATGGCAC,-0.0263
19,ATACCCAA,0.132
20,CCGTCGAC,0.0126
21,CCCCAGGA,-0.135
22,GCTGATAC,-0.0795
23,AATGACCG,-0.153
24,ACCGGTGG,-0.381
25,GGACTCAC,0.0235

row,Sequence,PBM E-score
1,CCACAGAC,-0.0308
2,GAGGTCAC,-0.0775
3,CGACCCCC,-0.372
4,ATGAACCG,-0.148
5,ACGAAAGC,-0.0144
6,AATCGTCG,0.00168
7,ACCTTAAG,0.0116
8,CCCCGAAA,0.137
9,TAATCACA,0.0304
10,AATAGGTC,0.111
11,ACCGATTA,0.156
12,CTGATTGA,-0.0639
13,AAACCACT,-0.0847
14,GCCCGGAC,-0.195
15,AATAGCGA,0.162
16,CCTCCGAA,-0.0597
17,GAACAGGC,-0.0749
18,AATACCTG,0.0544
19,ACTCGCTA,0.0669
20,GCACTTCC,-0.22
21,GCAATCAC,-0.0277
22,AATGAGGC,-0.0739
23,ATTCCCAC,-0.0393
24,AAAGGCGG,-0.0401
25,TAGGCAAA,-0.0554

row,Sequence,PBM E-score
1,ACATTTAA,0.12
2,ACGATATG,0.222
3,GCCCGCAC,0.0493
4,ATGTACGC,0.0402
5,CTGACTCC,-0.108
6,GCACGGTA,-0.162
7,ACGAGAAC,0.0558
8,CTCTTAAC,0.031
9,ACCTGATC,-0.0367
10,AACGCTTG,0.0225
11,TATCAAGA,0.156
12,ACAGAACC,-0.076
13,TGTATAAA,0.0257
14,AAACCCTC,0.0534
15,CAGCAACC,-0.157
16,TACTATAA,0.177
17,CGAGAGCG,0.0292
18,CAGGCGCG,0.231
19,CCGCTCCG,-0.0142
20,ACTCGGAG,0.0921
21,ACCCATAT,0.15
22,GTTTACGA,-0.00773
23,AACGATGA,0.0545
24,AGTTCCTA,0.0803
25,ACAGAAGC,0.0183

row,Sequence,PBM E-score
1,GCCATGGC,-0.103
2,CTCCCAGA,-0.253
3,ATACGAAC,0.0999
4,GAGGGGGA,-0.352
5,AGCACCCA,-0.205
6,GCCTGGGA,-0.0475
7,ACTGATCG,-0.097
8,CATCGAAC,0.227
9,ACGGCAGA,0.1
10,AAACTACA,0.147
11,AACTTAGT,0.173
12,ATCATGTG,0.0272
13,CGGGATAC,-0.0886
14,GGCTCCCC,-0.249
15,ATAATGCG,0.0621
16,CCTGTACC,-0.0308
17,AATGAGAA,-0.0126
18,CCGACAAC,-0.0927
19,CCTGTCAC,-0.0773
20,AGGTGGGC,-0.117
21,AACCGTTC,-0.0508
22,AGTCGAAT,-0.0128
23,ACCCACCT,-0.124
24,GTGAAGTA,-0.0907
25,CCCGAGGG,-0.0412

row,Sequence,PBM E-score
1,ATTTCGTC,0.158
2,TATAACAA,0.186
3,CGGGGAGC,-0.0803
4,CGCACGAC,-0.0564
5,ATTGCACA,0.075
6,GAGAAGTA,0.0136
7,ATAAGCGA,0.0927
8,ACGCACAC,0.082
9,AGTGTGAT,0.0891
10,CGTCACAG,0.282
11,ACGTTAGA,-0.121
12,CAGACGAC,-0.0246
13,CAAACGCC,0.0917
14,AAGTCACA,-0.0717
15,GGTTCCCA,-0.0522
16,GGAATGAC,-0.133
17,CGCCGTTA,-0.0337
18,AAATCAGT,-0.00024
19,ATTGGAGC,0.0568
20,ATAACCAC,0.0331
21,GTCACGAC,-0.0445
22,CCCAACAG,-0.098
